The list shows a part of the results.
Assays:
Assay in all cases: glycan array binding signal (z-score within array); higher = stronger binding
Details in all cases: glycan notation: IUPAC condensed, linker removed
[1] = molecular target: Fuc(a1-2)Gal(b1-4)[Fuc(a1-3)]GlcNAc
In short: (§1)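 Glycan array data came from 3228 arrays in the Consortium for Functional Glycomics database, and only arrays with an available protein sequence were kept. Glycan names were put into IUPAC-condensed notation, and columns mapping to the same glycan were averaged. The binding signal is a within-array Z-score, averaged across arrays of one protein sequence run at different concentrations or buffers and across linkers. A negative Z-score can be read as non-binding.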

[2] = molecular target: Fuc(a1-2)Gal(b1-4)[Fuc(a1-3)]GlcNAc(b1-2)Man(a1-3)[Fuc(a1-2)Gal(b1-4)[Fuc(a1-3)]GlcNAc(b1-2)Man(a1-6)]Man(b1-4)GlcNAc(b1-4)[Fuc(a1-6)]GlcNAc
In short: as §1

[3] = molecular target: Fuc(a1-2)Gal(b1-4)[Fuc(a1-3)]GlcNAc(b1-2)[Fuc(a1-2)Gal(b1-4)[Fuc(a1-3)]GlcNAc(b1-4)]Man(a1-3)[Fuc(a1-2)Gal(b1-4)[Fuc(a1-3)]GlcNAc(b1-2)Man(a1-6)]Man(b1-4)GlcNAc(b1-4)GlcNAc
In short: as §1

[4] = molecular target: Fuc(a1-2)Gal(b1-4)[Fuc(a1-3)]GlcNAc(b1-3)Gal(b1-4)[Fuc(a1-3)]GlcNAc
In short: as §1

[5] = molecular target: Fuc(a1-2)Gal(b1-4)[Fuc(a1-3)]GlcNAc(b1-3)Gal(b1-4)[Fuc(a1-3)]GlcNAc(b1-3)Gal(b1-4)[Fuc(a1-3)]GlcNAc
In short: as §1

[6] = molecular target: Fuc(a1-2)Gal(b1-4)[Fuc(a1-3)]GlcNAc(b1-3)GalNAc
In short: as §1

[7] = molecular target: Fuc(a1-2)Gal(b1-4)[Fuc(a1-3)]GlcNAc(b1-3)[Neu5Ac(a2-6)Gal(b1-4)GlcNAc(b1-6)]Gal(b1-4)Glc
In short: as §1

[8] = molecular target: Fuc(a1-2)Gal3S(b1-4)GlcNAc
In short: as §1

[9] = molecular target: Fuc(a1-2)Gal6S(b1-3)GlcNAc
In short: as §1

[10] = molecular target: Fuc(a1-2)Gal6S(b1-3)GlcNAc6S
In short: as §1

Fuc(a1-2)Gal6S(b1-4)Glc = molecular target: Fuc(a1-2)Gal6S(b1-4)Glc
In short: as §1

[11] = molecular target: Fuc(a1-2)Gal6S(b1-4)Glc6S
In short: as §1

Fuc(a1-2)[Gal(a1-3)]Gal = molecular target: Fuc(a1-2)[Gal(a1-3)]Gal
In short: as §1

[12] = molecular target: Fuc(a1-2)[Gal(a1-3)]Gal(b1-3)GalNAc
In short: as §1

[13] = molecular target: Fuc(a1-2)[Gal(a1-3)]Gal(b1-3)GalNAc(b1-3)Gal(a1-4)Gal(b1-4)Glc
In short: as §1

[14] = molecular target: Fuc(a1-2)[Gal(a1-3)]Gal(b1-3)GlcNAc
In short: as §1

[15] = molecular target: Fuc(a1-2)[Gal(a1-3)]Gal(b1-3)GlcNAc(b1-2)Man(a1-3)[Fuc(a1-2)[Gal(a1-3)]Gal(b1-3)GlcNAc(b1-2)Man(a1-6)]Man(b1-4)GlcNAc(b1-4)GlcNAc
In short: as §1

[16] = molecular target: Fuc(a1-2)[Gal(a1-3)]Gal(b1-3)GlcNAc(b1-2)Man(a1-3)[Fuc(a1-2)[Gal(a1-3)]Gal(b1-3)GlcNAc(b1-2)Man(a1-6)]Man(b1-4)GlcNAc(b1-4)[Fuc(a1-6)]GlcNAc
In short: as §1

[17] = molecular target: Fuc(a1-2)[Gal(a1-3)]Gal(b1-3)GlcNAc(b1-3)GalNAc
In short: as §1

[18] = molecular target: Fuc(a1-2)[Gal(a1-3)]Gal(b1-3)GlcNAc(b1-6)GalNAc
In short: as §1

[19] = molecular target: Fuc(a1-2)[Gal(a1-3)]Gal(b1-4)Glc
In short: as §1

[20] = molecular target: Fuc(a1-2)[Gal(a1-3)]Gal(b1-4)GlcNAc
In short: as §1

[21] = molecular target: Fuc(a1-2)[Gal(a1-3)]Gal(b1-4)GlcNAc(b1-2)Man
In short: as §1

[22] = molecular target: Fuc(a1-2)[Gal(a1-3)]Gal(b1-4)GlcNAc(b1-2)Man(a1-3)[Fuc(a1-2)[Gal(a1-3)]Gal(b1-4)GlcNAc(b1-2)Man(a1-6)]Man(b1-4)GlcNAc(b1-4)GlcNAc
In short: as §1

[23] = molecular target: Fuc(a1-2)[Gal(a1-3)]Gal(b1-4)GlcNAc(b1-2)Man(a1-3)[Fuc(a1-2)[Gal(a1-3)]Gal(b1-4)GlcNAc(b1-2)Man(a1-6)]Man(b1-4)GlcNAc(b1-4)[Fuc(a1-6)]GlcNAc
In short: as §1

[24] = molecular target: Fuc(a1-2)[Gal(a1-3)]Gal(b1-4)GlcNAc(b1-3)GalNAc
In short: as §1

[25] = molecular target: Fuc(a1-2)[Gal(a1-3)]Gal(b1-4)GlcNAc(b1-3)[Fuc(a1-2)[Gal(a1-3)]Gal(b1-4)GlcNAc(b1-6)]GalNAc
In short: as §1

[26] = molecular target: Fuc(a1-2)[Gal(a1-3)]Gal(b1-4)GlcNAc(b1-6)GalNAc
In short: as §1

[27] = molecular target: Fuc(a1-2)[Gal(a1-3)]Gal(b1-4)[Fuc(a1-3)]Glc
In short: as §1

[28] = molecular target: Fuc(a1-2)[Gal(a1-3)]Gal(b1-4)[Fuc(a1-3)]GlcNAc
In short: as §1

[29] = molecular target: Fuc(a1-2)[Gal(a1-3)]Gal(b1-4)[Fuc(a1-3)]GlcNAc(b1-3)GalNAc
In short: as §1

[30] = molecular target: Fuc(a1-2)[Gal(a1-4)]Gal(b1-4)GlcNAc
In short: as §1

[31] = molecular target: Fuc(a1-2)[GalNAc(a1-3)]Gal
In short: as §1

[32] = molecular target: Fuc(a1-2)[GalNAc(a1-3)]Gal(b1-3)GalNAc(a1-3)[Fuc(a1-2)]Gal(b1-4)GlcNAc
In short: as §1

[33] = molecular target: Fuc(a1-2)[GalNAc(a1-3)]Gal(b1-3)GalNAc(b1-3)Gal(a1-4)Gal(b1-4)Glc
In short: as §1

[34] = molecular target: Fuc(a1-2)[GalNAc(a1-3)]Gal(b1-3)GlcNAc
In short: as §1

[35] = molecular target: Fuc(a1-2)[GalNAc(a1-3)]Gal(b1-3)GlcNAc(b1-2)Man(a1-3)[Fuc(a1-2)[GalNAc(a1-3)]Gal(b1-3)GlcNAc(b1-2)Man(a1-6)]Man(b1-4)GlcNAc(b1-4)GlcNAc
In short: as §1

[36] = molecular target: Fuc(a1-2)[GalNAc(a1-3)]Gal(b1-3)GlcNAc(b1-2)Man(a1-3)[Fuc(a1-2)[GalNAc(a1-3)]Gal(b1-3)GlcNAc(b1-2)Man(a1-6)]Man(b1-4)GlcNAc(b1-4)[Fuc(a1-6)]GlcNAc
In short: as §1

B1: RsaA-N-term (Caulobacter crescentus), P35828 (protein)
chain: MAYTTAQLVTAYTNANLGKAPDAATTLTLDAYATQTQTGGLSDAAALTNTLKLVNSTTAVAIQTYQFFTGVAPSAAGLDFLVDSTTNTNDLNDAYYSKFAQENRFINFSINLATGAGAGATAFAAAYTGVSYAQTVATAYDKIIGNAVATAAGVDVAAAVAFLSRQANIDYLTAFVRANTPFTAAADIDLAVKAALIGTILNAATVSGIGGYATATAAMINDLSDGALSTDNAAGVNLFTAYPSSGVSGSTLSLTTGTDTLTGTANNDTFVAGEVAGDGSGWSHPQFEKGG
glycan array binding signal (z-score) [1]: -0.091 | glycan array binding signal (z-score) [2]: 0.618 | glycan array binding signal (z-score) [3]: 2.4 | glycan array binding signal (z-score) [4]: -0.047 | glycan array binding signal (z-score) [5]: -1.26 | glycan array binding signal (z-score) [6]: -0.298 | glycan array binding signal (z-score) [7]: -0.218 | glycan array binding signal (z-score) [8]: -0.243 | glycan array binding signal (z-score) [9]: -1.23 | glycan array binding signal (z-score) [10]: 0.619 | glycan array binding signal (z-score) (Fuc(a1-2)Gal6S(b1-4)Glc): -1.02 | glycan array binding signal (z-score) [11]: -0.09 | glycan array binding signal (z-score) (Fuc(a1-2)[Gal(a1-3)]Gal): -0.627 | glycan array binding signal (z-score) [12]: -0.328 | glycan array binding signal (z-score) [13]: -0.219 | glycan array binding signal (z-score) [14]: -0.677 | glycan array binding signal (z-score) [15]: 0.3 | glycan array binding signal (z-score) [16]: -0.025 | glycan array binding signal (z-score) [17]: -1.3 | glycan array binding signal (z-score) [18]: -0.558 | glycan array binding signal (z-score) [19]: -0.356 | glycan array binding signal (z-score) [20]: 1.14 | glycan array binding signal (z-score) [21]: -0.159 | glycan array binding signal (z-score) [22]: -0.039 | glycan array binding signal (z-score) [23]: -0.939 | glycan array binding signal (z-score) [24]: -0.285 | glycan array binding signal (z-score) [25]: -0.404 | glycan array binding signal (z-score) [26]: -0.728 | glycan array binding signal (z-score) [27]: -0.986 | glycan array binding signal (z-score) [28]: 1.78 | glycan array binding signal (z-score) [29]: 0.114 | glycan array binding signal (z-score) [30]: -0.479 | glycan array binding signal (z-score) [31]: -0.285 | glycan array binding signal (z-score) [32]: 0.134 | glycan array binding signal (z-score) [33]: -0.11 | glycan array binding signal (z-score) [34]: -0.279 | glycan array binding signal (z-score) [35]: -0.204 | glycan array binding signal (z-score) [36]: 0.922

From the supplement of paper PMC8728848
